Source: the supplement of paper PMC10849652
Some of the results follow.

The chains behind the UniProt entries cited, without tags or fusion partners. Where a name states a change or a piece, a line headed by the entry shows the natural chain unless it says otherwise.
UniProt Q9H8K7: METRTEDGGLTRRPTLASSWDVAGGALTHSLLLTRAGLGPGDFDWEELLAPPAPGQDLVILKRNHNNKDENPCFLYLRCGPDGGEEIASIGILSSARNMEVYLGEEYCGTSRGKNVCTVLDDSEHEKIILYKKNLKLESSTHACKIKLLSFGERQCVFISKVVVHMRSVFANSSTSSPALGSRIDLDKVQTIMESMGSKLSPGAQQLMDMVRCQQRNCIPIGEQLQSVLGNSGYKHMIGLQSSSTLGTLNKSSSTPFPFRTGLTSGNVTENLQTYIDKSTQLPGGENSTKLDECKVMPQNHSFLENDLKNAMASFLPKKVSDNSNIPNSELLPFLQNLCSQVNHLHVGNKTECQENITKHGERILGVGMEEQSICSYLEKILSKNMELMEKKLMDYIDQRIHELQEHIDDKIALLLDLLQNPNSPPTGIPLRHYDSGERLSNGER
UniProt O75781: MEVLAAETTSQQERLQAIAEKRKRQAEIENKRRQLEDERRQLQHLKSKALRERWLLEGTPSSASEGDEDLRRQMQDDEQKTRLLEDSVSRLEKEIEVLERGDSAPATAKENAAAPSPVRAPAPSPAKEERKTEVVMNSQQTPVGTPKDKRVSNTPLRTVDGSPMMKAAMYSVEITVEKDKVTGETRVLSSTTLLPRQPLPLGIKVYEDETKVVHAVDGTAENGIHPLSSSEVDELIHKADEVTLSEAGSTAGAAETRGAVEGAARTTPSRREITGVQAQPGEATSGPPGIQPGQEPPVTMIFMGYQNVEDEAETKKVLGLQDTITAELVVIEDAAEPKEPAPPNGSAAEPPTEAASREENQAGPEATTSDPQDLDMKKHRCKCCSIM
UniProt Q9BWT3: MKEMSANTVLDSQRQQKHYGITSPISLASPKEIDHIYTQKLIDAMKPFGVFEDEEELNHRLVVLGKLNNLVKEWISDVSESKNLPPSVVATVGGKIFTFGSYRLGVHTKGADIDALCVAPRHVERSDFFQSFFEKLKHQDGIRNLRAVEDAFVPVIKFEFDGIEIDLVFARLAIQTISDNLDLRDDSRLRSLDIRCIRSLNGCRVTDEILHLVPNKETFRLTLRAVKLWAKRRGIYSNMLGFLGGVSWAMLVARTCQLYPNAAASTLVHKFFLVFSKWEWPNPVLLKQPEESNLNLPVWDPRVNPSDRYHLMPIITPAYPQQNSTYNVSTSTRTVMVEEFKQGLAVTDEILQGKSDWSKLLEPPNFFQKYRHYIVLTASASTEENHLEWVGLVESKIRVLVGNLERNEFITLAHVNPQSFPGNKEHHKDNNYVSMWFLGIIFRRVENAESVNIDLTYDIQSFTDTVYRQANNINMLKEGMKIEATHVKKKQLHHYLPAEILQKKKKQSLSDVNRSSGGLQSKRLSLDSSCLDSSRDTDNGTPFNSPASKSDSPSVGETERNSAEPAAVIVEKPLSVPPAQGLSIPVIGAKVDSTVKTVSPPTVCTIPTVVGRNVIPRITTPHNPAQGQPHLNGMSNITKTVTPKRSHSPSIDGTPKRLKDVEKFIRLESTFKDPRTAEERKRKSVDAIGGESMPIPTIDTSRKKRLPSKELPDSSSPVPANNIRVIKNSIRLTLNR
UniProt Q5JRK9: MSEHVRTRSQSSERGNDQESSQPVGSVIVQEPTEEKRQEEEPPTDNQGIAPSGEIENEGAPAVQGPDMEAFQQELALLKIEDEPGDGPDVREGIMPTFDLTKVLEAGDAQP
UniProt Q86VP3, whole entry, looked up: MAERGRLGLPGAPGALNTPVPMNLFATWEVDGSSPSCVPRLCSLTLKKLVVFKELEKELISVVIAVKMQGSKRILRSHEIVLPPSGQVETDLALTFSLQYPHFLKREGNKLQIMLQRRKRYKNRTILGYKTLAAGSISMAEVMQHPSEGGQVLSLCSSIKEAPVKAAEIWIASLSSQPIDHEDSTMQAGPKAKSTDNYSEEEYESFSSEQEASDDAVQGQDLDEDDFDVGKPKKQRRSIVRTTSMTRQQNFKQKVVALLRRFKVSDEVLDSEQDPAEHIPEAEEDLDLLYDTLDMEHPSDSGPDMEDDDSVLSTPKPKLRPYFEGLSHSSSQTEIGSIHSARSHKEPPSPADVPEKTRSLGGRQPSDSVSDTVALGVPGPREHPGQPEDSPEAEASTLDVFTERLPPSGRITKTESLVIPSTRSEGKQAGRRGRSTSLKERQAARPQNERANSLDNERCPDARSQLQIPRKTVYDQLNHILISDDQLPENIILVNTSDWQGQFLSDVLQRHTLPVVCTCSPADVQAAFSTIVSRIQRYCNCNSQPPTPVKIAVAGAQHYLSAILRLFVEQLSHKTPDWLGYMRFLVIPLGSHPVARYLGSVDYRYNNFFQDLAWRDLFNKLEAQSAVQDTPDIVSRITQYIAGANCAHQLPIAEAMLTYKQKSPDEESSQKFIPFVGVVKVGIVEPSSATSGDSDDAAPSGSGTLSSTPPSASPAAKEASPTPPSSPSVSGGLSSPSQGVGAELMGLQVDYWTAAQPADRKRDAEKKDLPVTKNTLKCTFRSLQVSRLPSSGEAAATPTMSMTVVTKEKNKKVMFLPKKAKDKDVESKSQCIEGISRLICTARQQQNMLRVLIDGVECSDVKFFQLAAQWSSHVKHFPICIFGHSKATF
UniProt P13674: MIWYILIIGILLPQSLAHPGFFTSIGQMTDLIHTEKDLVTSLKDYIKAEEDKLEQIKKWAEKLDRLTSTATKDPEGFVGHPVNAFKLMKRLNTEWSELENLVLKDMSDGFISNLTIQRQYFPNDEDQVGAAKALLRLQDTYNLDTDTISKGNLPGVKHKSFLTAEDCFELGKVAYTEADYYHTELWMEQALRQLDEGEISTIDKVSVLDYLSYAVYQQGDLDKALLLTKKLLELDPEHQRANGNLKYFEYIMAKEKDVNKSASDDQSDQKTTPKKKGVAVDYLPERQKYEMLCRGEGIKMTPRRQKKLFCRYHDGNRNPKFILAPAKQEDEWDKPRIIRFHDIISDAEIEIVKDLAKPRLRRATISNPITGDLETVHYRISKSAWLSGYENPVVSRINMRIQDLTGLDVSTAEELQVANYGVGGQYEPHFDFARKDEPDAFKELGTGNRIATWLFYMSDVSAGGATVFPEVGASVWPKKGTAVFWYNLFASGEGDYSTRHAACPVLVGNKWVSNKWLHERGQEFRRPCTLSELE
UniProt Q6QHF9: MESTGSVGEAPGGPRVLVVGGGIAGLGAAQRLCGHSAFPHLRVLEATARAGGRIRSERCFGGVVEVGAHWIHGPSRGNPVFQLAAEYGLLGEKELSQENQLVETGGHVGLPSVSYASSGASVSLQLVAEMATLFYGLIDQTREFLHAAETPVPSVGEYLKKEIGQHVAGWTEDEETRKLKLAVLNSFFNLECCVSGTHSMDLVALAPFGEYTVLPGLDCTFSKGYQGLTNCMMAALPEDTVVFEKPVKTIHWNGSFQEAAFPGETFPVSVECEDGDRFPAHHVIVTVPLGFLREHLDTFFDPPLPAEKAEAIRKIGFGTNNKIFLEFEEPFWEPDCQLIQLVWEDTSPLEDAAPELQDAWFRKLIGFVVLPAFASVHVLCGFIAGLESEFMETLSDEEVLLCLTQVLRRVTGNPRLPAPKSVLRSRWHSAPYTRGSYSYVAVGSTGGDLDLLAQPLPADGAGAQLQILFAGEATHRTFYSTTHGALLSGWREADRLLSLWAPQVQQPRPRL
UniProt Q86WK9: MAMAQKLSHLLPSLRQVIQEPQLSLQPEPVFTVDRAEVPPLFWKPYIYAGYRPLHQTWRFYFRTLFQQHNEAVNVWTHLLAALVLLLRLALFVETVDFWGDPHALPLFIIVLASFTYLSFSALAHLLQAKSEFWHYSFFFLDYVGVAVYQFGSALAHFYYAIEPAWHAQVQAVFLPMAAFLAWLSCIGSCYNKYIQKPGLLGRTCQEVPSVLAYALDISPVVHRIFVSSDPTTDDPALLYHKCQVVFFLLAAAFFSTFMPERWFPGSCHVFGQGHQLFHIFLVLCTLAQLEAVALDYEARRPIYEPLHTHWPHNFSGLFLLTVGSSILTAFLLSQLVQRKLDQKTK
UniProt Q8IVL6: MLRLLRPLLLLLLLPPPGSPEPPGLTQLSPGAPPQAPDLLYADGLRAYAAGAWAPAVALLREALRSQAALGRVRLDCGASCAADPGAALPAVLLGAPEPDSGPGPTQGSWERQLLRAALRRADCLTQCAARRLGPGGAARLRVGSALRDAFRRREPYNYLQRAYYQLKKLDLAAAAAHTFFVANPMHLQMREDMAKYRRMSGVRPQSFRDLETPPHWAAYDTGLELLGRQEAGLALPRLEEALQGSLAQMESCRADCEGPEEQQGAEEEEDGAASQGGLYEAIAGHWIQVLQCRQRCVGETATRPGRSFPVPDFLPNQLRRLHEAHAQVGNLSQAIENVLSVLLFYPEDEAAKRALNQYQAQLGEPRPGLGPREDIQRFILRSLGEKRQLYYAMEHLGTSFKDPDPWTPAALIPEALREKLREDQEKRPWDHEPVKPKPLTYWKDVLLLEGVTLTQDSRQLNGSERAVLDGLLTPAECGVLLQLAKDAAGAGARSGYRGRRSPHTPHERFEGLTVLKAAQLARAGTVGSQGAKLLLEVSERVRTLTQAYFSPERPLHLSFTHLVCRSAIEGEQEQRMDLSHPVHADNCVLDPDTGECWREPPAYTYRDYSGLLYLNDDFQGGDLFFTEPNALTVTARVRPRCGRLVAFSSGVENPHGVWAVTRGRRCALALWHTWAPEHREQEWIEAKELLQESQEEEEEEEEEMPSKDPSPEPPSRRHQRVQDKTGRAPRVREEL
UniProt Q9H6K4: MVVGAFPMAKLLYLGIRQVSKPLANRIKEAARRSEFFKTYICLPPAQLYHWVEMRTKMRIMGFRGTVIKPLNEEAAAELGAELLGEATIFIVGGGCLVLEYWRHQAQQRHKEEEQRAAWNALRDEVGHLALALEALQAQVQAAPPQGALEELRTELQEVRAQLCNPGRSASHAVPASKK
UniProt Q8N573: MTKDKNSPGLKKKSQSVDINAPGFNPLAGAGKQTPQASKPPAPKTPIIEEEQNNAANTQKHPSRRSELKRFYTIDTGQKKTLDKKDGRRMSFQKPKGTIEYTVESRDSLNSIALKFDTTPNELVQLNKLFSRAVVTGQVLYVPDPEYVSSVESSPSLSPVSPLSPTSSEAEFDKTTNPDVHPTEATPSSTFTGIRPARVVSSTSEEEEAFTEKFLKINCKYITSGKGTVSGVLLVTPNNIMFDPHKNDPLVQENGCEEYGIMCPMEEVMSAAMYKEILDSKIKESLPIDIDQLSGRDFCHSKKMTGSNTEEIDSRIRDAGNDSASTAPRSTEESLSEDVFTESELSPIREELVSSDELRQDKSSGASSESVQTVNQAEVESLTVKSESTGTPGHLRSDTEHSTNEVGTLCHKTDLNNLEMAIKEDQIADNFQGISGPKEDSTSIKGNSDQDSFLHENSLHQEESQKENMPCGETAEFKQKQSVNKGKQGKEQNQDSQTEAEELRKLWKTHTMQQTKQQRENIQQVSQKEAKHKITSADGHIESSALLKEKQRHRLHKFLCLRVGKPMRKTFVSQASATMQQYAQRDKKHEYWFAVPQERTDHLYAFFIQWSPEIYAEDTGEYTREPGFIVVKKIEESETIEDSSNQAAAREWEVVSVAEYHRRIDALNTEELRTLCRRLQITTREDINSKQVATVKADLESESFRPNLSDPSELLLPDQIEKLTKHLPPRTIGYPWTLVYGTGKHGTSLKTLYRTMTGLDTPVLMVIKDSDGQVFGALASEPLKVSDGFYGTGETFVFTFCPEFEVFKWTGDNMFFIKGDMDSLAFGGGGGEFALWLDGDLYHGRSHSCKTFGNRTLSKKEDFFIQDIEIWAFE
UniProt Q5BJF6: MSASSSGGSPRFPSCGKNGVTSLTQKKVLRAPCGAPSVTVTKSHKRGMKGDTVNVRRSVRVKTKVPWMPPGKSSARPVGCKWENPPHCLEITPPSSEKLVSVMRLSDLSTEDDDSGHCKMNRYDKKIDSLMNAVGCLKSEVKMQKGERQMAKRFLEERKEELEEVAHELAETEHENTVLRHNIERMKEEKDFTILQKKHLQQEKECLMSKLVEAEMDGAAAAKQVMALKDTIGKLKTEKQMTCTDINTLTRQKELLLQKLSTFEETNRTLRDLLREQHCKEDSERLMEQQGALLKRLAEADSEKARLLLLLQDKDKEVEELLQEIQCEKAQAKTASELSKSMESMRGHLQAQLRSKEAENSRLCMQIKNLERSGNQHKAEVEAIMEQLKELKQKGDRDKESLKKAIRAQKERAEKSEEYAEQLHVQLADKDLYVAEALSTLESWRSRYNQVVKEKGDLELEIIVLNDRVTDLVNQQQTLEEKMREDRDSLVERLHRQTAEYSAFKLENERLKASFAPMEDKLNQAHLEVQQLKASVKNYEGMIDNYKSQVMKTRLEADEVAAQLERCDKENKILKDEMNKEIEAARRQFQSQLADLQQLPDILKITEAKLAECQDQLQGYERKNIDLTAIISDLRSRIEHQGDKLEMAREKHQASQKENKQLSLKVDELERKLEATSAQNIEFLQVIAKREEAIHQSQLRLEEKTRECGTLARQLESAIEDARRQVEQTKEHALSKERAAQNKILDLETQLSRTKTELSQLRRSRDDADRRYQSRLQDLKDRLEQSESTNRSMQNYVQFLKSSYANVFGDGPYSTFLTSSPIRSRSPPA

Assays:
Assay in all cases: log2 fold change, soluble protein after heating vs DMSO (PISA); higher = thermal stabilisation; K562 lysate, 10 uM; active = over 0.2 and 3.5 SD of the protein, either way, in both replicates (recomputed)
[1] = compound: C=CC(=O)N1CCC[C@@H](n2nc(-c3ccc(Oc4ccccc4)cc3)c3c(N)ncnc32)C1 [ibrutinib]
Method in brief: (§1)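 Log-two fold change in thermal stability relative to solvent controls is reported from duplicates. For each sample, crude K562 extract from dounce-homogenised pellets in PBS pH 7.4 with 1 mM MgCl2, at 1 mg/mL protein, was treated with 10 μM compound for 30 min. Aliquots heated for 3 min across 48°C-58°C were pooled, brought to 0.5% NP-40 at 4°C and cleared at 21,000xg for 90 min. The supernatant was quantified by TMTpro 16plex LC-MS/MS with channel sums equalised.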

[2] = compound: CC(=O)c1cnc2ccc(-c3cc(Cl)c(O)c(Cl)c3)nc2c1N[C@H]1CC[C@H](CN(C)C)CC1
Method in brief: as §1

[3] = compound: CC(C)(C)Cn1c(N)nc2ccc(-c3[nH]c(C(C)(C)C)nc3-c3ccc(F)cc3)nc21 [ralimetinib]
Method in brief: as §1

[4] = compound: CC(C)(O)CC(=O)NCCn1ccc2ncnc(Nc3ccc(Oc4cccc(C(F)(F)F)c4)c(Cl)c3)c21
Method in brief: as §1

[5] = compound: CC(C)C1=C2N=C(C=C(N2N=C1)NCC3=CC=CC=C3)NCCCCCCN
Method in brief: as §1

[6] = compound: CC1=C(C(CC(=O)N1)C2=CC=C(C=C2)C(F)(F)F)C(=O)NC3=C(C=C4C(=C3)C=NN4)F
Method in brief: as §1

[7] = compound: CC1=C(C=C(C=C1)NC(=O)C2=CC(=CC=C2)N(C)C)NC(=O)C3=CC=C(C=C3)O
Method in brief: as §1

[8] = compound: CC1=CC=C(C=C1)SC2=C3C=C(SC3=CN=C2)C(=O)N
Method in brief: as §1

[9] = compound: CC1=C(C2=C(C=C1)C(=O)C3=CC=CC=C3N2CCCN)C
Method in brief: as §1

[10] = compound: CC1=C(C=C(C=C1)NC(=O)C2=CC(=CC=C2)C(C)(C)C#N)NC3=CC4=C(C=C3)N=CN(C4=O)C
Method in brief: as §1

Measured: log2 fold change

NUP214 isoform 4 (UniProt P35658)
inactive: [1] -0.022 | [2] 0.053 | [3] 0.292 | [4] 0.137 | [5] -0.333 | [6] 0.18 | [7] -0.322 | [8] -0.006

OSBPL1A (UniProt Q9BXW6)
inactive: [1] 0.019 | [2] -0.002 | [5] 0.116 | [6] 0.152 | [9] -0.069 | [10] 0.012 | [8] -0.028

PAAT (UniProt Q9H8K7)
inactive: [1] -0.011 | [2] -0.047 | [3] -0.064 | [4] -0.01 | [5] -0.062 | [9] 0.01 | [10] 0.059 | [7] 0.04 | [8] -0.077

OBSCN isoform 6 (UniProt Q5VST9)
inactive: [2] 0.06 | [5] -0.068 | [8] 0.142

PARD3B (UniProt Q8TEW8)
inactive: [5] 0.091 | [9] 0.071

PALM isoform 2 (UniProt O75781)
inactive: [5] -0.104

P4HB (UniProt I3L0S0)
inactive: [2] 0.204 | [8] -0.132

PAPOLG (UniProt Q9BWT3)
inactive: [3] 0.01 | [4] -0.071 | [5] -0.19 | [6] -0.089 | [9] 0.012 | [10] -0.028 | [7] -0.092

ORMDL1 (UniProt Q9P0S3)
inactive: [1] 0.003 | [3] 0.092 | [4] -0.017 | [5] -0.056 | [6] 0.02 | [9] 0.222 | [10] 0.086 | [7] 0.09

PAGE2B (UniProt Q5JRK9)
inactive: [2] -0.049 | [3] -0.024 | [4] -0.032 | [5] -0.054 | [6] 0.023 | [9] 0.044 | [10] -0.003 | [7] 0.238 | [8] 0.022

PACRGL (UniProt Q8N7B6)
inactive: [9] 0.103 | [10] 0.211

OXLD1 (UniProt Q5BKU9)
inactive: [2] -0.066 | [3] -0.105 | [4] -0.03 | [6] 0 | [10] 0.146 | [7] 0.007 | [8] 0.033

OFD1 (UniProt O75665)
inactive: [1] 0.152 | [3] -0.085 | [4] 0.136 | [6] -0.2 | [9] 0.079 | [7] 0.049

ORMDL3 (UniProt Q8N138)
inactive: [2] 0.072 | [9] -0.164 | [10] 0.033 | [8] 0.134

NXT2 isoform 3 (UniProt Q9NPJ8)
inactive: [2] 0.023 | [8] -0.038

PACS2 isoform 2 (UniProt Q86VP3)
inactive: [3] 0.016 | [4] 0.011 | [5] -0.05 | [10] -0.112 | [7] 0.019

NUP214, A0A494C1F2
inactive: [3] -0.139 | [4] -0.051 | [5] -0.032 | [7] -0.068

P4HA1 isoform 2 (UniProt P13674)
inactive: [1] 0.013 | [3] 0.074 | [4] -0.094 | [5] -0.04 | [10] -0.007 | [7] -0.27

Random excerpt: 3 records from the list
OXLD1 (UniProt Q5BKU9)
inactive: [2] -0.066 | [3] -0.105 | [4] -0.03 | [6] 0 | [10] 0.146 | [7] 0.007 | [8] 0.033

PACRGL (UniProt Q8N7B6)
inactive: [9] 0.103 | [10] 0.211

NXT2 isoform 3 (UniProt Q9NPJ8)
inactive: [2] 0.023 | [8] -0.038

(list continues)

PAQR4 (UniProt Q8N4S7)
inactive: [5] 0.017

PAN3 (UniProt Q58A45)
inactive: [6] 0.064 | [10] 0.093

PAOX (UniProt Q6QHF9)
inactive: [1] -0.302 | [3] 0.107 | [4] -0.077 | [10] -0.055 | [7] 0.019

PAQR7 (UniProt Q86WK9)
inactive: [5] -0.03

OSBPL9 (UniProt E9PLH0)
inactive: [1] -0.087 | [5] 0.126

ORC3 (UniProt Q9UBD5)
inactive: [2] 0.161 | [6] -0.007 | [8] 0.03

OAS3 (UniProt Q9Y6K5)
inactive: [2] 0.045 | [3] 0.043 | [4] 0.054 | [5] 0.045 | [6] 0.204 | [10] -0.108 | [7] 0.037 | [8] 0.033

OGG1 isoform 4 (UniProt O15527)
inactive: [5] -0.197 | [9] -0.085

P3H3 (UniProt Q8IVL6)
inactive: [5] 0.21 | [9] 0.093

NXPE1 (UniProt F5H0Y6)
inactive: [1] 0.453 | [2] -0.072 | [8] 0.105

NXF2 (UniProt Q9GZY0)
inactive: [5] -0.071 | [9] -0.034

OS9 isoform 7 (UniProt Q13438)
inactive: [5] -0.028

OPA3 isoform 2 (UniProt Q9H6K4)
inactive: [9] 0.15 | [10] -0.088

ORC6 (UniProt Q9Y5N6)
inactive: [1] 0.01 | [3] 0.034 | [4] 0.079 | [5] 0.003 | [6] 0.029 | [9] 0.001 | [10] 0.01 | [7] -0.005

PAPSS2 isoform 2 (UniProt O95340)
inactive: [1] -0.018 | [2] -0.085 | [8] -0.12

OXR1 isoform 2 (UniProt Q8N573)
inactive: [3] -0.053 | [4] -0.115 | [7] 0.04

ODF2 (UniProt Q5BJF6)
inactive: [1] -0.012 | [3] -0.066 | [4] -0.246 | [5] -0.087 | [6] -0.007 | [9] 0.095 | [10] 0.001 | [7] -0.009

OCIAD1 (UniProt D6RDK6)
inactive: [2] 0.007 | [6] -0.106 | [8] -0.031

OAF (UniProt Q86UD1)
inactive: [3] -0.009 | [4] 0.04 | [5] 0.034 | [9] 0.244 | [7] 0.133
